## Assay results

Source: PubChem BioAssay AID504749 (NCATS, 2011).

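Malaria parasite (P. falciparum) lines kept in red blood cells; parasite DNA is measured by SYBR Green fluorescence after lysis, 72 h after compound addition. Each compound was titrated across a series from about 0.000037 to 29 µM. The number is the fitted AC50, the concentration giving a half-maximal change in signal; a lower value means higher potency, whether the curve shows a decrease or an increase. Calls follow the curve class and fit quality: every row here is inconclusive, covering signal-raising curves and weak, poorly fitted, partial or highest-dose-only inhibition curves.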

Values are in µM. All entries here are filed as inconclusive. Only part of the assay is shown, chiefly results filed as inconclusive. Potencies fitted to partial, single-point or poorly fitting curves are rough. The first word of each remark tells which way the curve ran; it can be opposite to the aim of the assay.

compound | condition | Potency (µM) | remark
Oc1ccc2[nH]cc(CCCCN3CC=C(c4ccccc4)CC3)c2c1 | CP256 | 17.78 | inhibitor, single point
CC[N+](CC)(CC)CC | CP215 | 5.358 | activator, partial curve, poor fit
CC[N+](CC)(CC)CC | PC26 | 9.528 | activator, single point
CCOC(=O)C(CCc1ccccc1)NC1CCc2ccccc2N(CC(=O)O)C1=O (stereo not given) | CP286 | 10 | inhibitor, single point
CCOC(=O)C(CCc1ccccc1)NC1CCc2ccccc2N(CC(=O)O)C1=O (stereo not given) | AS120 | 11.22 | inhibitor, single point
CCOC(=O)C(CCc1ccccc1)NC1CCc2ccccc2N(CC(=O)O)C1=O (stereo not given) | CP252 | 12.59 | inhibitor, single point
CCOC(=O)C(CCc1ccccc1)NC1CCc2ccccc2N(CC(=O)O)C1=O (stereo not given) | ATS189 | 10 | inhibitor, single point
CCOC(=O)C(CCc1ccccc1)NC1CCc2ccccc2N(CC(=O)O)C1=O (stereo not given) | AA1029 | 17.78 | inhibitor, single point
CCOC(=O)C(CCc1ccccc1)NC1CCc2ccccc2N(CC(=O)O)C1=O (stereo not given) | N140 | 17.78 | inhibitor, single point
CCOC(=O)C(CCc1ccccc1)NC1CCc2ccccc2N(CC(=O)O)C1=O (stereo not given) | CP305 | 12 | inhibitor, single point
CCOC(=O)C(CCc1ccccc1)NC1CCc2ccccc2N(CC(=O)O)C1=O (stereo not given) | DIV30 | 19.01 | inhibitor, single point
CCOC(=O)C(CCc1ccccc1)NC1CCc2ccccc2N(CC(=O)O)C1=O (stereo not given) | P93_24 | 15.85 | inhibitor, single point
CCOC(=O)C(CCc1ccccc1)NC1CCc2ccccc2N(CC(=O)O)C1=O (stereo not given) | CP191 | 17.78 | inhibitor, single point
CCOC(=O)C(CCc1ccccc1)NC1CCc2ccccc2N(CC(=O)O)C1=O (stereo not given) | CP203 | 19.01 | inhibitor, single point
CCOC(=O)C(CCc1ccccc1)NC1CCc2ccccc2N(CC(=O)O)C1=O (stereo not given) | CP238 | 11.22 | inhibitor, single point
CCOC(=O)C(CCc1ccccc1)NC1CCc2ccccc2N(CC(=O)O)C1=O (stereo not given) | CP256 | 17.78 | inhibitor, single point
CCOC(=O)C(CCc1ccccc1)NC1CCc2ccccc2N(CC(=O)O)C1=O (stereo not given) | SC27B | 17.78 | inhibitor, single point
CCOC(=O)C(CCc1ccccc1)NC1CCc2ccccc2N(CC(=O)O)C1=O (stereo not given) | CP269 | 15.1 | inhibitor, single point
CCOC(=O)C(CCc1ccccc1)NC1CCc2ccccc2N(CC(=O)O)C1=O (stereo not given) | CP185 | 11.22 | inhibitor, single point
CCOC(=O)C(CCc1ccccc1)NC1CCc2ccccc2N(CC(=O)O)C1=O (stereo not given) | PC15 | 11.22 | inhibitor, single point
CCOC(=O)C(CCc1ccccc1)NC1CCc2ccccc2N(CC(=O)O)C1=O (stereo not given) | CP268 | 13.46 | inhibitor, single point
CCOC(=O)C(CCc1ccccc1)NC1CCc2ccccc2N(CC(=O)O)C1=O (stereo not given) | CP211 | 19.01 | inhibitor, partial curve, poor fit
CCOC(=O)C(CCc1ccccc1)NC1CCc2ccccc2N(CC(=O)O)C1=O (stereo not given) | CP329 | 19.01 | inhibitor, single point
CCOC(=O)C(CCc1ccccc1)NC1CCc2ccccc2N(CC(=O)O)C1=O (stereo not given) | ECU | 12.59 | inhibitor, single point
CCOC(=O)C(CCc1ccccc1)NC1CCc2ccccc2N(CC(=O)O)C1=O (stereo not given) | ATS95 | 15.85 | inhibitor, single point
CCOC(=O)C(CCc1ccccc1)NC1CCc2ccccc2N(CC(=O)O)C1=O (stereo not given) | CP217 | 10 | inhibitor, single point
Cc1cc(O)cc2c1O[C@](C)(CCC[C@H](C)CCC[C@H](C)CCCC(C)C)CC2 | CP215 | 13.46 | inhibitor, single point
CN(C)CCCN1c2ccccc2Sc2ccc(C(F)(F)F)cc21 | CP215 | 13.46 | inhibitor, partial curve, poor fit
CN(C)CCCN1c2ccccc2Sc2ccc(C(F)(F)F)cc21 | ATS189 | 17.78 | inhibitor, single point
CN(C)CCCN1c2ccccc2Sc2ccc(C(F)(F)F)cc21 | PC15 | 3.981 | inhibitor, partial curve
CN(C)CCCN1c2ccccc2Sc2ccc(C(F)(F)F)cc21 | N140 | 11.22 | inhibitor, single point
CN(C)CCCN1c2ccccc2Sc2ccc(C(F)(F)F)cc21 | AA1029 | 11.22 | inhibitor, partial curve
CN(C)CCCN1c2ccccc2Sc2ccc(C(F)(F)F)cc21 | TAB109 | 12.59 | inhibitor, partial curve
CN(C)CCCN1c2ccccc2Sc2ccc(C(F)(F)F)cc21 | CP203 | 13.46 | inhibitor, single point
CN(C)CCCN1c2ccccc2Sc2ccc(C(F)(F)F)cc21 | CP335 | 7.569 | inhibitor, single point

4 of the entries, repeated:

- CN(C)CCCN1c2ccccc2Sc2ccc(C(F)(F)F)cc21 [CP215] : Potency 13.46 µM (inhibitor, partial curve, poor fit)
- CCOC(=O)C(CCc1ccccc1)NC1CCc2ccccc2N(CC(=O)O)C1=O (stereo not given) [DIV30] : Potency 19.01 µM (inhibitor, single point)
- Oc1ccc2[nH]cc(CCCCN3CC=C(c4ccccc4)CC3)c2c1 [CP256] : Potency 17.78 µM (inhibitor, single point)
- CCOC(=O)C(CCc1ccccc1)NC1CCc2ccccc2N(CC(=O)O)C1=O (stereo not given) [ATS95] : Potency 15.85 µM (inhibitor, single point)